For experiment [1], the target named is OsNF-YB7 fused with the GAL4 DNA-binding domain (BD), full length (rice (Oryza sativa)). The experiment in a line: two-hybrid; yeast AH109; OsNF-YB7 (full length or truncated) as BD bait in pGBKT7, OsGLK1/2 (full length or truncated) as AD prey in pGADT7; growth on SD/-Leu-Trp-His, 3 days at 28 °C.
In experiment [2] the target is C-terminus of OsNF-YB7 fused with the GAL4 DNA-binding domain (rice (Oryza sativa)). The description is as above.
The target of experiment [3] is cLUC-OsNF-YB7 (rice (Oryza sativa)). The experiment in a line: split reporter; split complementary luciferase; nLUC-OsGLK1/2 and cLUC-OsNF-YB7 co-infiltrated into N. benthamiana leaves, LUC activity imaged after 48 hr.
Experiment [4] addresses nYFP-OsNF-YB7 (rice (Oryza sativa)). Kind of experiment: split reporter; BiFC; nYFP-OsNF-YB7 and cYFP-OsGLK1 transiently coexpressed in N. benthamiana leaf epidermal cells, YFP by confocal microscopy 48 hr after infiltration.
Experiment [5] deals with OsNF-YB7-GFP (rice (Oryza sativa)). Kind of experiment: co-IP; OsNF-YB7-GFP and OsGLK1-Flag coexpressed in rice protoplasts; lysate (50 mM Tris-HCl, 150 mM NaCl, 5 mM EDTA pH 8.0, 1% NP-40) on GFP-Trap agarose beads, 4 °C, 3 hr; blots with anti-GFP and anti-Flag.

No constants are given. Whether binding was seen depends on the method and setting. A result given as binding can be weak or reduced; the word gives no strength. Sequences can lack the tags named with a protein. For some of these results: In cells and extracts the contact can be indirect.

B1: OsGLK1 fused with the yeast GAL4 activation domain (AD), full length (protein, UniProt Q5Z5I4 1-455)
chain: MLAVSPAMCPDIEDRAAVAGDAGMEVVGMSSDDMDQFDFSVDDIDFGDFFLRLEDGDVLPDLEVDPAEIFTDFEAIATSGGEGVQDQEVPTVELLAPADDVGVLDPCGDVVVGEENAAFAGAGEEKGGCNQDDDAGEANVDDGAAAVEAKSSSPSSTTSSSQEAESRHKSSSKSSHGKKKAKVDWTPELHRRFVQAVEQLGIDKAVPSRILEIMGIDSLTRHNIASHLQKYRSHRKHMIAREAEAASWTQRRQIYAAGGGAVAKRPESNAWTVPTIGFPPPPPPPPSPAPIQHFARPLHVWGHPTMDPSRVPVWPPRHLVPRGPAPPWVPPPPPSDPAFWHHPYMRGPAHVPTQGTPCMAMPMPAARFPAPPVPGVVPCPMYRPLTPPALASKNQQDAQLQLQVQPSSESIDAAIGDVLSKPWLPLPLGLKPPSVDSVMGELQRQGVANVPPACG
For B1, the binding result in experiment [1] and in experiment [2] was “binds” in each case.

B2: nLUC-OsGLK1 (protein, UniProt Q5Z5I4 1-455)
chain: MLAVSPAMCPDIEDRAAVAGDAGMEVVGMSSDDMDQFDFSVDDIDFGDFFLRLEDGDVLPDLEVDPAEIFTDFEAIATSGGEGVQDQEVPTVELLAPADDVGVLDPCGDVVVGEENAAFAGAGEEKGGCNQDDDAGEANVDDGAAAVEAKSSSPSSTTSSSQEAESRHKSSSKSSHGKKKAKVDWTPELHRRFVQAVEQLGIDKAVPSRILEIMGIDSLTRHNIASHLQKYRSHRKHMIAREAEAASWTQRRQIYAAGGGAVAKRPESNAWTVPTIGFPPPPPPPPSPAPIQHFARPLHVWGHPTMDPSRVPVWPPRHLVPRGPAPPWVPPPPPSDPAFWHHPYMRGPAHVPTQGTPCMAMPMPAARFPAPPVPGVVPCPMYRPLTPPALASKNQQDAQLQLQVQPSSESIDAAIGDVLSKPWLPLPLGLKPPSVDSVMGELQRQGVANVPPACG
On to B2, for which the binding entry in experiment [3] is “binds”.

B3: cYFP-OsGLK1 (protein, UniProt Q5Z5I4 1-455)
chain: MLAVSPAMCPDIEDRAAVAGDAGMEVVGMSSDDMDQFDFSVDDIDFGDFFLRLEDGDVLPDLEVDPAEIFTDFEAIATSGGEGVQDQEVPTVELLAPADDVGVLDPCGDVVVGEENAAFAGAGEEKGGCNQDDDAGEANVDDGAAAVEAKSSSPSSTTSSSQEAESRHKSSSKSSHGKKKAKVDWTPELHRRFVQAVEQLGIDKAVPSRILEIMGIDSLTRHNIASHLQKYRSHRKHMIAREAEAASWTQRRQIYAAGGGAVAKRPESNAWTVPTIGFPPPPPPPPSPAPIQHFARPLHVWGHPTMDPSRVPVWPPRHLVPRGPAPPWVPPPPPSDPAFWHHPYMRGPAHVPTQGTPCMAMPMPAARFPAPPVPGVVPCPMYRPLTPPALASKNQQDAQLQLQVQPSSESIDAAIGDVLSKPWLPLPLGLKPPSVDSVMGELQRQGVANVPPACG
For B3, in experiment [4], the binding result is reported as “binds”.

B4: OsGLK1-Flag (protein, UniProt Q5Z5I4 1-455)
chain: MLAVSPAMCPDIEDRAAVAGDAGMEVVGMSSDDMDQFDFSVDDIDFGDFFLRLEDGDVLPDLEVDPAEIFTDFEAIATSGGEGVQDQEVPTVELLAPADDVGVLDPCGDVVVGEENAAFAGAGEEKGGCNQDDDAGEANVDDGAAAVEAKSSSPSSTTSSSQEAESRHKSSSKSSHGKKKAKVDWTPELHRRFVQAVEQLGIDKAVPSRILEIMGIDSLTRHNIASHLQKYRSHRKHMIAREAEAASWTQRRQIYAAGGGAVAKRPESNAWTVPTIGFPPPPPPPPSPAPIQHFARPLHVWGHPTMDPSRVPVWPPRHLVPRGPAPPWVPPPPPSDPAFWHHPYMRGPAHVPTQGTPCMAMPMPAARFPAPPVPGVVPCPMYRPLTPPALASKNQQDAQLQLQVQPSSESIDAAIGDVLSKPWLPLPLGLKPPSVDSVMGELQRQGVANVPPACG
For the molecule B4, in experiment [5], the binding entry is recorded as “binds”.

B5: OsGLK2 in pGADT7 (GAL4 activation domain fusion) (protein, UniProt Q5NAN5 1-539)
chain: MLEVSTLRSPKADQRAGVGGHHVVGFVPAPPSPADVADEVDAFIVDDSCLLEYIDFSCCDVPFFHADDGDILPDLEVDPTELLAEFASSPDDEPPPTTSAPGPGEPAAAAGAKEDVKEDGAAAAAAAAAADYDGSPPPPRGKKKKDDEERSSSLPEEKDAKNGGGDEVLSAVTTEDSSAGAAKSCSPSAEGHSKRKPSSSSSSAAAGKNSHGKRKVKVDWTPELHRRFVQAVEQLGIDKAVPSRILELMGIECLTRHNIASHLQKYRSHRKHLMAREAEAASWTQKRQMYTAAAAAAAVAAGGGPRKDAAAATAAVAPWVMPTIGFPPPHAAAMVPPPPHPPPFCRPPLHVWGHPTAGVEPTTAAAPPPPSPHAQPPLLPVWPRHLAPPPPPLPAAWAHGHQPAPVDPAAYWQQQYNAARKWGPQAVTPGTPCMPPPLPPAAMLQRFPVPPVPGMVPHPMYRPIPPPSPPQGNKLAALQLQLDAHPSKESIDAAIGDVLVKPWLPLPLGLKPPSLDSVMSELHKQGIPKVPPAASGAAG
Regarding B5, in experiment [1], the binding result is given as “binds”.

B6: nLUC-OsGLK2 (protein, UniProt Q5NAN5 1-539)
chain: MLEVSTLRSPKADQRAGVGGHHVVGFVPAPPSPADVADEVDAFIVDDSCLLEYIDFSCCDVPFFHADDGDILPDLEVDPTELLAEFASSPDDEPPPTTSAPGPGEPAAAAGAKEDVKEDGAAAAAAAAAADYDGSPPPPRGKKKKDDEERSSSLPEEKDAKNGGGDEVLSAVTTEDSSAGAAKSCSPSAEGHSKRKPSSSSSSAAAGKNSHGKRKVKVDWTPELHRRFVQAVEQLGIDKAVPSRILELMGIECLTRHNIASHLQKYRSHRKHLMAREAEAASWTQKRQMYTAAAAAAAVAAGGGPRKDAAAATAAVAPWVMPTIGFPPPHAAAMVPPPPHPPPFCRPPLHVWGHPTAGVEPTTAAAPPPPSPHAQPPLLPVWPRHLAPPPPPLPAAWAHGHQPAPVDPAAYWQQQYNAARKWGPQAVTPGTPCMPPPLPPAAMLQRFPVPPVPGMVPHPMYRPIPPPSPPQGNKLAALQLQLDAHPSKESIDAAIGDVLVKPWLPLPLGLKPPSLDSVMSELHKQGIPKVPPAASGAAG
On to B6, for which the binding entry in experiment [3] is listed as “binds”.

These data come from publication PMC11407766, “OsNF-YB7 inactivates OsGLK1 to inhibit chlorophyll biosynthesis in rice embryo”.
